Results are given in words; binding and its absence hold for the method and conditions named. Binding seen in cells or lysates may run through a third protein. Binding can be weak; no strength is given.
Target: T1, biotinylated recombinant murine IFNγ (mouse) (UniProt P01580)
T1 sequence (chain, biotin (EZ linked N-hydroxysulfosuccinimide-biotin)): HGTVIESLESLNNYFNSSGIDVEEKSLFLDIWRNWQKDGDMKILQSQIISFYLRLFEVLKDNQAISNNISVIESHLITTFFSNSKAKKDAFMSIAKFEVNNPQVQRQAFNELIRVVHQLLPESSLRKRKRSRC
Assay: pull-down; biotinylated IFNγ (0.5 ng/ml, 3 min, 37°C) on RAW 264.7 cells, captured on streptavidin-agarose from pooled raft and non-raft fractions; blot for IFNγR1 and IFNγR2; complexes boiled in 1% SDS, re-precipitated with anti-pTyr and blotted for IFNγR1, JAK2, JAK1 and STAT1; only the target purified

For “IFNγ receptor subunit 2 (IFNγR2) (mouse (endogenous in RAW 264.7))”, the binding was “binds”.

Source: PMC3169561, “Restoration of IFNγR Subunit Assembly, IFNγ Signaling and Parasite Clearance in Leishmania donovani Infected Macrophages: Role of Membrane Cholesterol” (PLoS Pathogens, 2011)
